Data taken from PubChem BioAssay AID2685 (National Center for Advancing Translational Sciences (NCATS), 2010).
Where “and” joins values, the source holds several entries; their conditions need not be identical. Equal entries are not always repeated. This is one part of the list. Shown are side measurements of this screen, not its main read-out; they come without a call. Most of these compounds were active or inconclusive in the main read-out, so they are no random draw. Potencies come from curve fits of mixed quality, noted in brackets.

Assay: qHTS Assay for Lipid Storage Modulators in Drosophila S3 Cells;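 as to cell number change: cells counted by Cell Tracker Red CMTPX staining in the red channel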
Settings: BODIPY lipid droplet fluorescence, 18-24 h; for cell number change: measured here: cell count max response, cells fed with added oleic acid
Outline: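 Laser-scanning cytometry quantifies lipid droplet accumulation (500–530 nm total intensity; droplet/cell object ratio) in oleic acid-fed (400 uM added) Drosophila S3 cells treated with a concentration series. 20 uM Triacsin C defined 100% inhibition.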

[1] = measured here: lipid fluorescence (Fed channel) AC50, cells fed with added oleic acid
[2] = measured here: cell number channel AC50, cells fed with added oleic acid

SMILES | cell number change | AC50 [1] | AC50 [2]
O=C1OCC2=C1C(c1ccc(F)cc1)c1cc3c(cc1N2)OCCO3 (stereo not drawn) | -16.6% | 6.51 µM [rising, single point] | –
CCCCn1c(N)c(N(CCC(C)C)C(=O)CC2CCCC2)c(=O)[nH]c1=O | -26.5% | – | –
Cc1cc(C)n2nc(C(=O)NCCc3ccccc3)nc2n1 | – | – | 2.59 µM [rising, single point]
CCN(CC)S(=O)(=O)c1ccc(N2CCOCC2)c(NS(=O)(=O)c2ccc(OC)cc2)c1 | – | 25.9 µM [falling, single point] | –
CCOc1ccc(N(CC(=O)Nc2ccccc2F)S(=O)(=O)c2c(C)[nH]c(=O)[nH]c2=O)cc1 | -56.8% | – | 29.1 µM [falling, single point]
O=C(Cn1cc([N+](=O)[O-])cn1)NCCc1nc2ccccc2[nH]1 | -13.4% | – | –
Cc1ccc(CC(=O)N2CC(C)OC(C)C2)cc1 (stereo not drawn) | 6.37% | 1.64 µM [falling, partial curve] | –
O=C(CN1C(=O)COc2ccccc21)NCc1ccccn1 | -23.8% | 29.1 µM [falling, single point] | –
C/C=C/c1ccc(OCC(O)CN2CCCCC2CC)c(OC)c1 (stereo not drawn) | -22.9% | 29.1 µM [falling, single point] | –
CC1(C)Cc2nc3nc(SCC(=O)NCCc4ccccc4)n(-c4ccccc4)c(=O)c3cc2CO1 | -25.8% | – | –
Nc1ccc(CCc2nc3ccccc3o2)cc1 | 19.4% | 20.6 µM [rising, single point] | –
C=Cc1c(C)c2cc3[nH]c(cc4nc(cc5nc(cc1[nH]2)C(C)=C5CCC(=O)O)C(CCC(=O)O)=C4C)c(C)c3C=C | -19.1% | 29.1 µM [falling, single point] | –
COCCC(=O)N1CCC(Oc2ccc(C(=O)NCCc3cn[nH]c3)cc2)CC1 | -14.2% | – | 6.51 µM [falling, single point]
CC(C)(C)c1ccc(C(=O)N2CCCN(C(=O)c3ccc(C(C)(C)C)cc3)CC2)cc1 | 75.1% | 18.4 µM [rising, partial curve] | 16.4 µM [rising, single point]
CC1CN(S(=O)(=O)c2cccc(C(=O)N(Cc3nnc(-c4ccccc4Cl)o3)C3CC3)c2)CC(C)O1 (stereo not drawn) | -25.1% | 2.91 µM [falling, partial curve, poor fit] | –
CCC(C)[C@H](NC(=O)NCc1cccc(OC)c1)C(=O)O (stereo partly drawn) | – | 0.116 µM [falling, full curve] | –
COC(=O)c1cc(C(=O)Cc2ccccc2)c[nH]1 | -16.1% | – | –
CCCc1nnc(NC(=O)c2cc3ccccc3o2)s1 | -24.4% | – | –
Cc1cc(C)[n+]2n1C(=O)C(c1ccccc1)=C2[O-] | 31% and 54.6% | 6.51 µM [rising, partial curve, poor fit] and 29.1 µM [rising, single point] | 6.51 µM [rising, partial curve] and 20.6 µM [rising, single point]
CCC(C)N(C(=O)CSc1nc(-c2ccccc2)cs1)C1CCS(=O)(=O)C1 (stereo not drawn) | – | 6.51 µM [falling, single point] | –

SMILES | cell number change | AC50 [1] | AC50 [2]
Cc1ccccc1CS(=O)(=O)c1ncc(Cl)c(C(=O)Nc2ccc(F)cc2)n1 | – | 0.291 µM [falling, full curve] | 6.51 µM [falling, single point]
O=C(O)C1C2C=CC3(O2)C1C(=O)N1c2ccccc2C2OCCC2C13 (stereo not drawn) | 7.08% | 1.46 µM [falling, full curve] | –
NC(=O)c1nn(CC(=O)Nc2ccc3c(c2)OCO3)cc1[N+](=O)[O-] | -4.93% | – | –
N#CC1=C(N)N(c2ccccc2)C(c2cccc([N+](=O)[O-])c2)C1(C#N)C#N (stereo not drawn) | 5.61% | 0.366 µM [rising, partial curve, poor fit] | –
O=C(NCCN1CCOCC1)c1csc2c1CCCC2 | -8.3% | – | –
CC(Sc1ccccc1)C(=O)N1CCN(S(=O)(=O)c2ccccc2)CC1 (stereo not drawn) | – | 0.0731 µM [falling, full curve, poor fit] | –
O=C(c1c(F)cccc1F)N1CCN=C1SCc1ccccc1 | – | 0.651 µM [rising, partial curve, poor fit] | 0.731 µM [rising, single point]
CCCCCCCCSc1nnc(CSc2nc3nc(C)cc(C)n3n2)o1 | 41.6% | 18.4 µM [rising, single point] | 1.84 µM [rising, partial curve]
O=S(=O)(c1ccc(NC(=S)NC2CCCC2)cc1)N1CCCC1 | 13% | – | –
CCCn1c(SCC(=O)N2CCOCC2)nnc1-c1ccncc1 | 11.2% | 0.13 µM [falling, partial curve, poor fit] | –
COc1ccc(CCNC(=O)CCN2C(=O)[C@@H]3Cc4ccccc4CN3C2=O)cc1OC | -12.5% | – | –
O=C(COc1ccc2c(c1)OCO2)Nc1ccccc1C(F)(F)F | 34.7% | 23.1 µM [rising, partial curve, poor fit] | –
CCCc1cc(=O)oc2cc(OCC(=O)N3CCOCC3)c(Cl)cc12 | 18.1% | 6.51 µM [rising, single point] | 0.00461 µM [rising, full curve, poor fit]
COc1cc(/C=C(/C#N)c2ccc(F)cc2)ccc1Oc1ccc([N+](=O)[O-])cn1 | -3.65% | – | –
CCCCc1ccc(NC(=O)CSC2=NN3CCCC(=O)N=C3S2)cc1 | -35.2% | – | 14.6 µM [falling, single point]
Cc1cc(N2CCCC2)ccc1/C=C1/C(=O)N(C)C(=S)N1C | -52.8% | – | 6.51 µM [falling, single point]
CN1Cc2ccccc2N(CC(=O)NCc2ccccc2)C1=O | -31.7% | – | –
O=C(NC1CCCCC1)c1c(O)nc2sccn2c1=O | -50% | 3.66 µM [rising, full curve] | 0.326 µM [falling, partial curve, poor fit]
CC1C/C(=C/c2ccncc2)C(=O)/C(=C/c2ccncc2)C1 (stereo not drawn) | -32.3% | 20.6 µM [falling, single point] | 23.1 µM [falling, single point]

Of the compounds above, these contain a Cl atom.
SMILES | cell number change | AC50 [1] | AC50 [2]
CC1CN(S(=O)(=O)c2cccc(C(=O)N(Cc3nnc(-c4ccccc4Cl)o3)C3CC3)c2)CC(C)O1 (stereo not drawn) | -25.1% | 2.91 µM [falling, partial curve, poor fit] | –
Cc1ccccc1CS(=O)(=O)c1ncc(Cl)c(C(=O)Nc2ccc(F)cc2)n1 | – | 0.291 µM [falling, full curve] | 6.51 µM [falling, single point]
CCCc1cc(=O)oc2cc(OCC(=O)N3CCOCC3)c(Cl)cc12 | 18.1% | 6.51 µM [rising, single point] | 0.00461 µM [rising, full curve, poor fit]
